Measurements as given in paper PMC2932728, “The Canine Papillomavirus and Gamma HPV E7 Proteins Use an Alternative Domain to Bind and Destabilize the Retinoblastoma Protein” (PLoS Pathogens, 2010).

T1: pRb expressed from RcCMV-Rb (UniProt P06400)
T1 sequence: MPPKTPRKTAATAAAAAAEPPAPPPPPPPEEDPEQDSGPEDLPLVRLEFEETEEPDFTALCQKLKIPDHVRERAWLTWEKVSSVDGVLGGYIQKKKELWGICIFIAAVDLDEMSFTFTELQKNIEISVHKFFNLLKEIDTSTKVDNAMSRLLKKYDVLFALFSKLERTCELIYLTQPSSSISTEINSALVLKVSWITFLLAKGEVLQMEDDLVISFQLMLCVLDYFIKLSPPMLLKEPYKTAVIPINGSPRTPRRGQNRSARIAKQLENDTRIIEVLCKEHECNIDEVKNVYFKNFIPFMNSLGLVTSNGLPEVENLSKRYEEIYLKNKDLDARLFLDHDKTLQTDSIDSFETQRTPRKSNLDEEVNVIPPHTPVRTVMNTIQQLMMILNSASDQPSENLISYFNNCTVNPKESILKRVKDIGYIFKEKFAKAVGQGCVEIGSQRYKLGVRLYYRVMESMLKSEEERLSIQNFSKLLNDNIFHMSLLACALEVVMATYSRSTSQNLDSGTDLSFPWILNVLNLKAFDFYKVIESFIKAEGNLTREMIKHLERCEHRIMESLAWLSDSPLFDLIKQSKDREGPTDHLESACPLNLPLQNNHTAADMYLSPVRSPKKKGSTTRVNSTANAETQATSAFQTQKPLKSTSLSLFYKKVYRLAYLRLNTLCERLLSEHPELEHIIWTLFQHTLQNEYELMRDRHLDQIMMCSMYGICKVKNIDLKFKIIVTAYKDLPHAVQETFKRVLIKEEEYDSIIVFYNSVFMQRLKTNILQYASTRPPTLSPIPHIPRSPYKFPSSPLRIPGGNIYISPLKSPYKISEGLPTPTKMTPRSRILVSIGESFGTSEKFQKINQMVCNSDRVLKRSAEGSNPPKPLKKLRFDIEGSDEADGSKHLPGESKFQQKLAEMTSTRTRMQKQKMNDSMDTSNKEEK

B1: human retinoblastoma tumor suppressor protein pRb (natural protein, human (endogenous in Jurkat), UniProt P06400 1-928, looked up)
chain: T1 sequence
notes: retinoblastoma protein pRb, human, endogenous in Jurkat cell nuclear extract; also called human pRb; source: endogenous, Jurkat cell nuclear extract

Columns and labels:
[1] = target: T1, pRb expressed from RcCMV-Rb; assay: co-IP; U2OS cells co-transfected with RcCMV-Rb and N-terminal HA-tagged E7 constructs; RIPA lysate; precipitated with polyclonal anti-pRb antibody, blotted with anti-pRb and anti-HA
[2] = target: GST CPV-2 E7 S26C (canine papillomavirus type 2 (CPV-2)); assay: pull-down; 5 µg GST fusion protein with 50 µg Jurkat cell nuclear extract, 1 h at 4°C in 20 mM Hepes/150 mM KCl/4 mM MgCl2/1 mM EDTA/0.02% Nonidet P-40/10% glycerol; glutathione-Sepharose beads; Western blot for pRb and GST, densitometry normalised to GSTE7, wild type CPV-2 E7 set to 100%; only the target purified
[3] = target: GST CPV-2 E7 ΔLXSXE (canine papillomavirus type 2 (CPV-2)); assay: as above
[4] = target: GST HPV-4 E7 carboxyl-terminal domain (human papillomavirus type 4 (HPV-4)); assay: as above
[5] = target: GST CPV-2 E7 S26G (canine papillomavirus type 2 (CPV-2)); assay: as above

Molecule | binding [1] | binding [2] | binding [3] | binding [4] | binding [5]
HA-tagged CPV-2 E7 wild type (N-terminal HA) (canine papillomavirus type 2 (CPV-2)) | binds | – | – | – | –
HA-tagged CPV-2 E7 ΔLXSXE (N-terminal HA) (canine papillomavirus type 2 (CPV-2)) | binds | – | – | – | –
HA-tagged CPV-2 E7 carboxy-terminal domain (N-terminal HA) (canine papillomavirus type 2 (CPV-2)) (domain or fragment) | binds | – | – | – | –
B1 | – | binds | binds | binds | binds

No constants are given. Whether binding was seen depends on the method and setting. Binding seen in cells or lysates may run through a third protein. Binding can be weak; no strength is given.
